According to article PMC4686931:
Results are given in words; binding and its absence hold for the method and conditions named. In cells and extracts the contact can be indirect. Some results given as binding are weak or reduced against the parent protein; the word gives no strength.

Chains of the proteins cited; added tags and fusions are not shown.
UniProt Q04207: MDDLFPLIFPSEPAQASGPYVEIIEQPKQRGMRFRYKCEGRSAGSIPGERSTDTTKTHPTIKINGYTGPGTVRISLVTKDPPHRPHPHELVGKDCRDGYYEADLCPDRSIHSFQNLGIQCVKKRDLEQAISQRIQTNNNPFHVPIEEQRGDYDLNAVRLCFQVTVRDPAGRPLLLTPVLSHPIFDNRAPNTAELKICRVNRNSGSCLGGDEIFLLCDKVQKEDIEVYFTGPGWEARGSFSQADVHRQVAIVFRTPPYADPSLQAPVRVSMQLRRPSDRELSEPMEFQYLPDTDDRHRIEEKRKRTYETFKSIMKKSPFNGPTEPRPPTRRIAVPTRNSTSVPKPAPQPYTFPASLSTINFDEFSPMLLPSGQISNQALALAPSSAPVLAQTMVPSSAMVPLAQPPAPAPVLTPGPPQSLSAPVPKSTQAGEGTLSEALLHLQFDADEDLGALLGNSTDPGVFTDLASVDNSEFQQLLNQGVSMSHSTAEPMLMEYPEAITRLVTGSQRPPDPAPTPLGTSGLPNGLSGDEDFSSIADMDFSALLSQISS

Experiments:
[1] = target: T1, Vitamin D receptor (mouse (endogenous in kidney)) (UniProt P48281); assay: co-IP; mouse kidney lysate (300 μg, RIPA buffer; nuclear fractions according to the legend) precleared with protein A/G-agarose, incubated with agarose-conjugated VDR or NF-κB p65 antibody at 4 °C overnight, immunoblot for the other protein; mice pretreated with VitD3 (25 μg/kg at 48, 24 and 1 h) before LPS (1.0 mg/kg), kidneys collected 1 h after LPS
T1 sequence: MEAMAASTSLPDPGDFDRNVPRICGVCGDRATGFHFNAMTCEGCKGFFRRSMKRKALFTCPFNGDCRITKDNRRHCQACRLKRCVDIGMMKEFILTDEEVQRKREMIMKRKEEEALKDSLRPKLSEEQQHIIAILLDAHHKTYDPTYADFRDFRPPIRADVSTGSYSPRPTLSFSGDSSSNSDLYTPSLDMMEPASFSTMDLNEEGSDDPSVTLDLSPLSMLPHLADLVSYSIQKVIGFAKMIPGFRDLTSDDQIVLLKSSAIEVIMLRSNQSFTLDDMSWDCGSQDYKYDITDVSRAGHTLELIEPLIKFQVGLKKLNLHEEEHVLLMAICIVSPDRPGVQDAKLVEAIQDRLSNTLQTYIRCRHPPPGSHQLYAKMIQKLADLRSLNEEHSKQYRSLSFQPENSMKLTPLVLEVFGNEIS

[2] = target: nuclear factor kappa B (NF-κB) p65 subunit (mouse (endogenous in kidney)) (UniProt Q04207); assay: as above

| Molecule | binding [1] | binding [2] |
| --- | --- | --- |
| nuclear factor kappa B (NF-κB) p65 subunit (from UniProt Q04207 1-549) | binds |  |
| Vitamin D receptor (protein, UniProt P48281 1-422) MEAMAASTSLPDPGDFDRNVPRICGVCGDRATGFHFNAMTCEGCKGFFRRSMKRKALFTCPFNGDCRITKDNRRHCQACRLKRCVDIGMMKEFILTDEEVQRKREMIMKRKEEEALKDSLRPKLSEEQQHIIAILLDAHHKTYDPTYADFRDFRPPIRADVSTGSYSPRPTLSFSGDSSSNSDLYTPSLDMMEPASFSTMDLNEEGSDDPSVTLDLSPLSMLPHLADLVSYSIQKVIGFAKMIPGFRDLTSDDQIVLLKSSAIEVIMLRSNQSFTLDDMSWDCGSQDYKYDITDVSRAGHTLELIEPLIKFQVGLKKLNLHEEEHVLLMAICIVSPDRPGVQDAKLVEAIQDRLSNTLQTYIRCRHPPPGSHQLYAKMIQKLADLRSLNEEHSKQYRSLSFQPENSMKLTPLVLEVFGNEIS |  | binds |
